# Numbering of substitutions follows the chain as printed. Results are given in words; binding and its absence hold for the method and conditions named. Some entries that bind do so weakly or less than the wild type.
# B1: Prx1-Cys52Ser (enzyme, UniProt P35700 1-199)
# chain: MSSGNAKIGYPAPNFKATAVMPDGQFKDISLSEYKGKYVVFFFYPLDFTFVSPTEIIAFSDRADEFKKLNCQVIGASVDSHFCHLAWINTPKKQGGLGPMNIPLISDPKRTIAQDYGVLKADEGISFRGLFIIDDKGILRQITINDLPVGRSVDEIIRLVQAFQFTDKHGEVCPAGWKPGSDTIKPDVNKSKEYFSKQK
# B2: p66CH2CB WT (N-terminal domains CH2 and CB of p66Shc, residues 1-150) (domain or fragment, UniProt P29353-1 1-150)
# chain: MDLLPPKPKYNPLRNESLSSLEEGASGSTPPEELPSPSASSLGPILPPLPGDDSPTTLCSFFPRMSNLRLANPAGGRPGSKGEPGRAADDGEGIVGAAMPDSGPLPLLQDMNKLSGGGGRRTRVEGGQLGGEEWTRHGSFVNKPTRGWLH
# B3: Peroxiredoxin 1 (Prx1) WT, recombinant, P35700 1-199 (enzyme)
# chain: B1 chain with S52C
# B4: Peroxiredoxin 1 (Prx1) WT, recombinant (enzyme, UniProt P35700 1-199)
# chain: B1 chain with S52C
# B5: Prx1-Cys83Ser (enzyme, UniProt P35700 1-199)
# chain: B1 chain with S52C, C83S
# Key:
# [1] = biological target: T1, p66CH2CB WT (N-terminal domains CH2 and CB of p66Shc, residues 1-150) (UniProt P29353); experiment: native gel or EMSA; BN-PAGE; 15 μg p66CH2CB with 30 μg decameric Prx1-Cys52Ser and 5/10/20 μg Trx1 in the presence of 3 mM EDTA; both purified
# T1 sequence: B2 chain
# [2] = biological target: T1, p66CH2CB WT (N-terminal domains CH2 and CB of p66Shc, residues 1-150); experiment: non-reducing SDS-PAGE (disulfide-linked forms); 10 μg p66CH2CB incubated with Prx1 for 1 hour at room temperature (or with 0.005 % H2O2); loading buffer devoid of reducing agents, 5 min at 95 °C; both purified
# [3] = biological target: T2, Peroxiredoxin 1 (Prx1) WT, recombinant (mouse), P35700; experiment: as above; conditions: remark: other sources report otherwise
# T2 chain: B1 chain with S52C
# p66CH2CB-Cys59Ser = biological target: T3, p66CH2CB-Cys59Ser (UniProt P29353); experiment: native gel or EMSA; BN-PAGE of purified recombinant proteins incubated for 1 hour at room temperature (20 μg p66CH2CB with 40 μg Prx1 WT or 20 μg Prx1-Cys83Ser); bands cut out and separated in a second, denaturing SDS-PAGE dimension; both purified
# T3 sequence: B2 chain with C59S
# [4] = biological target: T1, p66CH2CB WT (N-terminal domains CH2 and CB of p66Shc, residues 1-150); experiment: as above
binder,measurement,setting,value
B1,binding,[1],binds
B2,binding,[2],binds
B3,binding,[3],binds
B4,binding,p66CH2CB-Cys59Ser,binds
B5,binding,[4],binds
same,binding,p66CH2CB-Cys59Ser,binds
